PubChem BioAssay AID652272, Drosophila RNAi Screening Center, 2013

Aim: 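Finding fly genes that regulate Hedgehog signal transduction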 (primary screen)
System: Drosophila clone 8 (Cl8) cells
Reagent: long dsRNA against Drosophila genes
Measured: 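Plate reader light from a firefly reporter under a ptc promoter fragment that responds to Hedgehog, with Renilla light as transfection reference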
Direction: firefly Hh reporter signal: higher = more ptc reporter light; Renilla reference signal: higher = more Renilla control light
Hit rule: 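Called a hit if the two-replicate mean z-score lies below -2 or above +3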
Meaning of the calls: active = hit: reporter lowered or raised; inactive = not a hit
The screen tested about 21,000 reagents; below is a random part of those that have a named target and a result. Of all reagents, 503 (2.4%) got an active call. 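Raw plate light values, not normalised; calls rest on replicate z-scores that were not deposited; hits include reporter decreases as well as increases.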 Not stated in the record: the amount of reagent, the time to read-out.

The first 2 records, ahead of the listing:
{"target gene": "TfIIA-L (GeneID 43284)", "amplicon": "DRSC16882", "firefly Hh reporter signal, replicate 1": 1.12e5, "firefly Hh reporter signal, replicate 2": 64247, "Renilla reference signal, replicate 1": 2883, "Renilla reference signal, replicate 2": 1811, "outcome": "inactive"}
{"target gene": "Spn42Dd (GeneID 49808)", "amplicon": "DRSC05024", "firefly Hh reporter signal, replicate 1": 1.37e5, "firefly Hh reporter signal, replicate 2": 82115, "Renilla reference signal, replicate 1": 3098, "Renilla reference signal, replicate 2": 6844, "outcome": "inactive"}

The listing, repeating the preview:
{"target gene": "TfIIA-L (GeneID 43284)", "amplicon": "DRSC16882", "firefly Hh reporter signal, replicate 1": 1.12e5, "firefly Hh reporter signal, replicate 2": 64247, "Renilla reference signal, replicate 1": 2883, "Renilla reference signal, replicate 2": 1811, "outcome": "inactive"}
{"target gene": "Spn42Dd (GeneID 49808)", "amplicon": "DRSC05024", "firefly Hh reporter signal, replicate 1": 1.37e5, "firefly Hh reporter signal, replicate 2": 82115, "Renilla reference signal, replicate 1": 3098, "Renilla reference signal, replicate 2": 6844, "outcome": "inactive"}
{"target gene": "CG31675 (GeneID 318879)", "amplicon": "DRSC01825", "firefly Hh reporter signal, replicate 1": 1.53e5, "firefly Hh reporter signal, replicate 2": 3.15e5, "Renilla reference signal, replicate 1": 4005, "Renilla reference signal, replicate 2": 12807, "outcome": "inactive"}
{"target gene": "Wnt10 (GeneID 34011)", "amplicon": "DRSC00990", "firefly Hh reporter signal, replicate 1": 5.67e5, "firefly Hh reporter signal, replicate 2": 2.23e5, "Renilla reference signal, replicate 1": 27612, "Renilla reference signal, replicate 2": 8899, "outcome": "inactive"}
{"target gene": "Wnt10 (GeneID 34011)", "amplicon": "DRSC02797", "firefly Hh reporter signal, replicate 1": 1.14e5, "firefly Hh reporter signal, replicate 2": 59066, "Renilla reference signal, replicate 1": 2899, "Renilla reference signal, replicate 2": 5703, "outcome": "inactive"}
{"target gene": "ClpP (GeneID 34402)", "amplicon": "DRSC02806", "firefly Hh reporter signal, replicate 1": 75769, "firefly Hh reporter signal, replicate 2": 45429, "Renilla reference signal, replicate 1": 2516, "Renilla reference signal, replicate 2": 1814, "outcome": "inactive"}
{"target gene": "gbb (GeneID 37778)", "amplicon": "DRSC04687", "firefly Hh reporter signal, replicate 1": 57317, "firefly Hh reporter signal, replicate 2": 43224, "Renilla reference signal, replicate 1": 1083, "Renilla reference signal, replicate 2": 3571, "outcome": "inactive"}
{"target gene": "ppk21 (GeneID 43485)", "amplicon": "DRSC14466", "firefly Hh reporter signal, replicate 1": 72345, "firefly Hh reporter signal, replicate 2": 85833, "Renilla reference signal, replicate 1": 2380, "Renilla reference signal, replicate 2": 2307, "outcome": "inactive"}
{"target gene": "CG16984 (GeneID 38322)", "amplicon": "DRSC08500", "firefly Hh reporter signal, replicate 1": 74960, "firefly Hh reporter signal, replicate 2": 52711, "Renilla reference signal, replicate 1": 2160, "Renilla reference signal, replicate 2": 4039, "outcome": "inactive"}
{"target gene": "CG3163 (GeneID 37836)", "amplicon": "DRSC04341", "firefly Hh reporter signal, replicate 1": 1.00e5, "firefly Hh reporter signal, replicate 2": 1.02e5, "Renilla reference signal, replicate 1": 3876, "Renilla reference signal, replicate 2": 4029, "outcome": "inactive"}
{"target gene": "CG17707 (GeneID 5740408)", "amplicon": "DRSC20650", "firefly Hh reporter signal, replicate 1": 64480, "firefly Hh reporter signal, replicate 2": 2.71e5, "Renilla reference signal, replicate 1": 2044, "Renilla reference signal, replicate 2": 11202, "outcome": "inactive"}
{"target gene": "ATPsynbeta (GeneID 43829)", "amplicon": "DRSC17194", "firefly Hh reporter signal, replicate 1": 56060, "firefly Hh reporter signal, replicate 2": 1.13e5, "Renilla reference signal, replicate 1": 2320, "Renilla reference signal, replicate 2": 4891, "outcome": "inactive"}
{"target gene": "CG43689 (GeneID 31353)", "amplicon": "DRSC18046", "firefly Hh reporter signal, replicate 1": 1.26e5, "firefly Hh reporter signal, replicate 2": 2.50e5, "Renilla reference signal, replicate 1": 3765, "Renilla reference signal, replicate 2": 8265, "outcome": "inactive"}
{"target gene": "CG43689 (GeneID 31353)", "amplicon": "DRSC18383", "firefly Hh reporter signal, replicate 1": 36211, "firefly Hh reporter signal, replicate 2": 30899, "Renilla reference signal, replicate 1": 1833, "Renilla reference signal, replicate 2": 1856, "outcome": "inactive"}
{"target gene": "CG12674 (GeneID 33384)", "amplicon": "DRSC00348", "firefly Hh reporter signal, replicate 1": 1.02e5, "firefly Hh reporter signal, replicate 2": 75712, "Renilla reference signal, replicate 1": 2423, "Renilla reference signal, replicate 2": 1811, "outcome": "inactive"}
{"target gene": "Tollo (GeneID 44497)", "amplicon": "DRSC11305", "firefly Hh reporter signal, replicate 1": 78467, "Renilla reference signal, replicate 1": 3238, "Renilla reference signal, replicate 2": 1901, "outcome": "inactive"}
{"target gene": "CG14669 (GeneID 40652)", "amplicon": "DRSC12065", "firefly Hh reporter signal, replicate 1": 49728, "Renilla reference signal, replicate 1": 1916, "outcome": "inactive"}
{"target gene": "CG14669 (GeneID 40652)", "amplicon": "DRSC12067", "firefly Hh reporter signal, replicate 1": 1.66e5, "Renilla reference signal, replicate 1": 4187, "outcome": "inactive"}
{"target gene": "CG14669 (GeneID 40652)", "amplicon": "DRSC12068", "firefly Hh reporter signal, replicate 1": 2.38e5, "Renilla reference signal, replicate 1": 5672, "outcome": "inactive"}
{"target gene": "CG14669 (GeneID 40652)", "amplicon": "DRSC12255", "firefly Hh reporter signal, replicate 1": 98461, "firefly Hh reporter signal, replicate 2": 1.52e5, "Renilla reference signal, replicate 1": 4201, "Renilla reference signal, replicate 2": 4322, "outcome": "inactive"}
{"target gene": "CG9313 (GeneID 37374)", "amplicon": "DRSC04540", "firefly Hh reporter signal, replicate 1": 1.41e5, "firefly Hh reporter signal, replicate 2": 1.13e5, "Renilla reference signal, replicate 1": 5627, "Renilla reference signal, replicate 2": 4086, "outcome": "inactive"}
